# Measured values taken from the supplement of paper PMC8551327.
# The other results are listed elsewhere or left out. No stated cut-off is given here; in the data, active = 1.25 or more and inactive = the rest. Most values come without repeats; read them as rough.
# Tested on: Kcc2-LUC knock-in mouse primary cortical neurons (Kcc2 promoter reporter)
# Experiment: Kcc2 promoter-driven luciferase activity relative to vehicle control (fold of vehicle (ratio)); higher = stronger Kcc2 promoter activation (Kcc2 expression enhancer)
# Conditions: 100 nM; 48 h
row,Compound,Kcc2 promoter-driven luciferase activity
1,O=C1N[C@H]2[C@H](O)[C@H](O)[C@@H](O)[C@H](O)[C@@H]2c2cc3c(c(O)c21)OCO3 [Pancratistatin],inactive: 0.96
2,"CCOC(OCC)C(CC)[Se]c1ccccc1[N+](=O)[O-] (centres undefined) [1-(1,1-Diethoxybutan-2-ylselanyl)-2-nitrobenzene]",inactive: 0.81
3,"O=C([O][Hg][CH2]C1COC([CH2][Hg][O]C(=O)c2ccccc2)CO1)c1ccccc1 (centres undefined) [P-Dioxane,5-bis[(benzoyloxymercuri)methyl]-]",inactive: 0.92
4,CC(=O)O[C@H]1C(=O)[C@@]2(C)[C@H]([C@H](OC(=O)c3ccccc3)[C@]3(O)C[C@H](O)C(C)=C1C3(C)C)[C@]1(OC(C)=O)CO[C@@H]1C[C@@H]2O [Baccatin III],inactive: 0.18
